The values that follow come from the supplement of paper PMC3334620.

In all, about 33,000 sequences were measured (“E-score (-0.5 to 0.5)”: median about -0.0034, highest 2% from about 0.25 on). The list shows a part of the results.

The target of this experiment is T1, Yap3 (UniProt P38749).
T1 sequence: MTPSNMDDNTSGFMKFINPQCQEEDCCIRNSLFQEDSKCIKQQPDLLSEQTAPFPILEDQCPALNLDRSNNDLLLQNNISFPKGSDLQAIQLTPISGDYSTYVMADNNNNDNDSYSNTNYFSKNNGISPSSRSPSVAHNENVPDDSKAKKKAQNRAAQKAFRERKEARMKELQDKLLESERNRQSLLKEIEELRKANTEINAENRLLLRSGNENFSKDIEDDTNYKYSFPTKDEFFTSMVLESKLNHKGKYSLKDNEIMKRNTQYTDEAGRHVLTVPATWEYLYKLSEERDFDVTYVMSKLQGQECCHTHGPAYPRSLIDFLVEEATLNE
Put plainly: PBM E-score (8-mer binding enrichment) (E-score (-0.5 to 0.5)); higher = stronger / more preferred TF binding. The conditions noted are these: protein concentration: 100 nM; construct: GST-full length. The method in brief:
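Masliner-normalised scans of fluorescent anti-GST signal were the basis for scoring. That signal came from GST-tagged yeast transcription factors applied at about 100-200 nM to double-stranded universal all-10-mer Agilent arrays on fresh or once-stripped slides. Each ungapped eight-base word, pooled with its reverse complement, received an E-score from the Universal PBM Analysis Suite.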
Take ATCATAGC: the “PBM E-score” value came to 0.0624. With AAGTGCCC, the “PBM E-score” value is -0.072. Take CTATGGGA: the “PBM E-score” value is -0.103. GACGATCC: the “PBM E-score” value is -0.0215. The value for ACGCGGCG was -0.0321; that for ACCTTTCA was 0.0516; that for GCCCAACC was 0.0559.

Regarding CAGACACG, the “PBM E-score” value is -0.12. Consider ATATTGTC, for which the “PBM E-score” value worked out at 0.226. The figure for CTCCAATC is 0.119. The figure for AAGAGCCT is -0.0508. On to ATGCTAAG, for which the “PBM E-score” value stood at 0.0349. Regarding AACGTGTG, the “PBM E-score” value worked out at 0.0407. The value for GATACAGC was 0.0439.

As for CTGATTGC, the “PBM E-score” value worked out at 0.0633. In the case of GTCAGATA, the “PBM E-score” value was found to be 0.0654. For ACGCTCAC, the “PBM E-score” value is -0.0296. The value for AAATCGGG was 0.0709; that for ATATCTAA was 0.115; that for CTCGGAGA was -0.0278. The value for TCTTAAGA was 0.0284; that for ACCCGCCT was -0.291. In the case of ATTAGCGC, the “PBM E-score” value was 0.11.

In the case of AACAGTTG, the “PBM E-score” value is -0.0544. The figure for AAGGACTC is -0.0811. The figure for AAACGTAG is 0.102; for ACGGCATA it is 0.0715; for CTCCAGTC it is -0.175.

As for AGTGAGGG, the “PBM E-score” value was -0.219.

Consider CGGAAACG, for which the “PBM E-score” value worked out at 0.0552. As for ACCTTTTG, the “PBM E-score” value was -0.00164.

For the sequence TCGAGCCA, the “PBM E-score” value is 0.0206. In the case of ATCCACTC, the “PBM E-score” value was 0.0328. For ATCATTCC, the “PBM E-score” value was determined as 0.1. With CCTCAACG, the “PBM E-score” value is -0.243. The figure for GACCCCCA is -0.423; for CTACAAAC it is 0.11. On to GAATCCGA, for which the “PBM E-score” value was -0.0133. With GATGTGGA, the “PBM E-score” value was found to be 0.092. Take AGGTGAAC: the “PBM E-score” value was -0.0219. The figure for ACCTAACT is 0.0547; for CTTCGTAC it is 0.067. The figure for GGCTATAC is -0.125.

Turning to AACTTTTG, the “PBM E-score” value worked out at 0.113. The value for AATCTCGC was 0.0766; that for AAGCACAA was 0.198; that for CAGCATTA was 0.0879. The value for CTAGCCAG was -0.0936; that for AAGGAGAG was -0.28. The value for GCAATTAA was 0.112; that for CTATACTA was 0.16. For the sequence AGACCAAA, the “PBM E-score” value is -0.0495. Turning to ATGTTCGG, the “PBM E-score” value was found to be 0.118. The value for ACGTGATC was 0.157; that for CAAACATA was 0.0864; that for ACAAATAA was 0.225.

As to CGCTGGGC, the “PBM E-score” value is -0.257. The value for CAGTCGGG was -0.115; that for TACGCACA was 0.118. The figure for CCACTCGC is 0.0481; for ATGCAGGG it is -0.159. The value for AAAGCTAA was 0.0273; that for GGACCTGA was -0.175; that for CGATCGCA was 0.175. In the case of AGGTCCGC, the “PBM E-score” value is -0.239. In the case of TCTCAGCA, the “PBM E-score” value turned out to be 0.0139. With ACAAATTG, the “PBM E-score” value was determined as 0.173.

CCTGGTTA: the “PBM E-score” value is -0.0505.

With ATATCCGG, the “PBM E-score” value stood at 0.0452. As to TGGCCACA, the “PBM E-score” value is -0.0477. For the sequence GCTATCAC, the “PBM E-score” value stood at 0.179.

As to GTACGCGA, the “PBM E-score” value came to 0.0761. CAAAGACA: the “PBM E-score” value is 0.138. For ACGTCCTA, the “PBM E-score” value came to 0.00661.

On to GAACGCAC, for which the “PBM E-score” value was 0.0357.

AGGATGCA: the “PBM E-score” value is -0.0466.

As to AGTAATCA, the “PBM E-score” value is 0.117.

Regarding ATCCGTTA, the “PBM E-score” value stood at 0.284. The figure for GAACCGGA is 0.0493. The figure for TGGGCGAA is -0.0318. On to CGACCGAC, for which the “PBM E-score” value is 0.0322. In the case of TATTCGGA, the “PBM E-score” value came out at 0.194. For AGGGGGAA, the “PBM E-score” value is -0.111. The value for AATCTAGT was 0.142; that for AACTACAG was 0.0316. The figure for GAGCAAGC is -0.15.
